This is one part of the list. Values are worked out from sequencing counts and are noisy.
T1: Homer1 EVH1 domain
T1 chain: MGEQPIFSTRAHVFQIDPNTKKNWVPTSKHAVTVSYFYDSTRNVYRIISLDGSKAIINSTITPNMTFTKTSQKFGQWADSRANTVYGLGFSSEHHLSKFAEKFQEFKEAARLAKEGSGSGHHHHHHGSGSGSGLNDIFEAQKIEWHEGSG


Molecular target: T1, Homer1 EVH1 domain
Assay: enrichment score (AUC of log2 frequency ratio across FACS sorting rounds) (log2 AUC); higher = stronger enrichment for Homer1 EVH1 binding

Row | Binder | enrichment score
1 | ESLDFHLIVKDKTVGVPIEPIIAACVVIFLTLCFGL | -0.332
2 | TVYPVPEGITCGVVTFLSNMFMGVLLFFLTFYHTEL | -2.22
3 | PPADLPLALPAHGLWSRHILQQTLMDEGLRLARLVS | -0.81
4 | MAKATSGAAGLRLLLLLLLPLLGKVALGLYFSRDAY | -3.52
5 | MGSLLALLALLPLWGAVAEGPAKRVLTLEGDLVLGG | 0.269
6 | CKDYALSYLSLRACIGLWTAFLCIVLVATDASSLVC | -0.196
7 | MNTTSSAAPPSLGVEFISLLAIIPLSVALAVGLPGN | 2.89
8 | FVNGVYAFGFLFMLPQLFVNYKLKSVAHLPWKAFTY | 2.8
9 | MKTLPAMLGTGKLFWVFFLIPYLDIWNIHGKESCDV | 1.39
10 | IGLIVASFSASVCSLLAITVDRYLSLYYALTYHSER | -2.34
11 | IKGKLFTWNILKTIALGQMLSLCICGTAITSQYLAE | -0.0144
12 | AFAALICIIFIYEALEKLFDLGETYAFNMHNNLDKL | 1.85
13 | RLLFAKLFGHLTSARRARKSEVPHFRLKKVQNIKMW | -1.45
14 | PSGPRWPRLAASSKTSRPRLKGKITAPGGAMERGRA | -1.35
15 | GPLAEVRDLPGSAPAKEDGFSWLLPPPPPPPLPFQT | 1.67
16 | IVFMTFVVLNLFISVILVAFSEEQKYYQLSEEGEIV | -3.01
17 | KIDRMSRIVFPVLFGTFNLVYWATYLNREPVLGVSP | 1.22
18 | NNNTAAKGKRTKKGMATAKQRLGKILKIHRNGKPLL | 2.5
19 | FSSLIGSGCQIFAVSLIVIIVAMIEDLYTERGSMLS | 1.52
20 | TTSPFSLFPPPPLAKALNLAILLGCLTICPALDSQS | 0.496
21 | SRISDKFKYIIAQLMRDTESLAKRICKDLENLSQIH | 0.29
22 | MAAAAPGNGRASAPRLLLLFLVPLLWAPAAVRAGPD | 1.61

Row | Binder | enrichment score
23 | MELVLVFLCSLLAPMVLASAAEKEKEMDPFHYDYQT | 1.3
24 | EMDGNDLMQASKELSDLEIEMYALLGVFCLAILVFL | 2.97
25 | PPEQWRATRVEILRRLLVTSQARAVAPGGATRLTDK | 5.66
26 | SSSRWIPLQPMPVAWAFVQKTSALLWLLLLGTSLSP | -0.321
27 | PLRIAALNALAACNYLPQSREKIIAALFKALNSTNI | -0.934
28 | LTSFLCPGIVFADFFIMNLILWGEGSSAAIPFGTLV | -2.24
29 | QGMAFALLANLPAVNGLYSSFFPLLTYFFLGGVHQM | 0.939
30 | FLNDQTLEFLKIPSTLAPPMDPSVPIWIIIFGVIFC | 1.09
31 | LNELASVKVNEVVRYEAGYVVCAVIAGLYLLLVPTA | 2.47
32 | NTAENRELYIKTTLRELLVYIVFLVDICLLTYGMTS | 3.22
33 | AGPNIAAIVGGTVAGIVLIGILLLVIWKALIHLSDL | 3.9
34 | GVISTPVIRTFGRGGRYYGRGYKNQAAIQGRPPYAA | 1.64
35 | GWDQLITQLNQNHTLLRPKDRVGLIHDVFQLVGAGR | 0.558
36 | ITNDLAQIIIPKDNSSLLKRLACIAAFFCGLLILSS | 2.49
37 | HSKELITAWYIGFLVLIFSSFLVYLVEKDANKEFST | 2.24
38 | GPGVNNKSAQVLLLLVIPGHLIFLYTIHLMRSGHTS | 1.9
39 | PTLRPPRKAALAARGGRGCRARAGGLLPATQSPAMS | 0.53
40 | LLTSVSLTGVLVVMLIFTVLELLLAAYNSVFWWKQL | 2.9
41 | FGGHRIQVYFAALSLILYIFTKLSVDLYSGALFIQK | -0.117
42 | GLSFILAGLIVGGACIYKYFMPKSTIYRGEMCFFDS | 2.66
43 | QKVKVWISEYWNLTETVAIGLFSAGFVLRWGDHPFH | 0.394
44 | TTNVTAHAAYSYMYAGFSSFLILATVLCNVLVCGAL | 3.29
